PubChem BioAssay AID652259, Drosophila RNAi Screening Center | 2013
The screen tested about 22,000 reagents; below is a random part of those that have a named target and a result. Of all reagents, 233 (1.1%) were called active. 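Light values are raw, unnormalised plate reads; the ratio scores behind the reporter calls were not deposited.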 Names joined by + are all predicted targets of the reagent. Reagent sequences are not shown. Not stated in the record: the amount of reagent, the time to read-out, the dose of the treatment.

- Assay: 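Identify new Wingless signalling regulators in fly cells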 (primary screen)
- Cells: Drosophila clone 8 imaginal disc epithelial cells
- Reagents: long dsRNA against Drosophila genes
- Challenge: pathway stimulated by co-transfected Wingless expression plasmid
- Detection: 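Firefly luciferase from a tcf-site Wingless reporter, measured alongside co-transfected Renilla luciferase that tracks transfection; pathway stimulated by a Wingless plasmid; the firefly-to-Renilla ratio is not deposited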
- Direction: firefly reporter light: higher = more Wg reporter light, before normalisation; Renilla control light: higher = more transfected or surviving cells
- Active means: 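Strong candidates differ from their plate mean by at least two out of four per-plate statistical tests; weak candidates meet just one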
- Calls: active = candidate regulator (raises or lowers reporter); inactive = not a candidate

no.	gene	amplicon	reporter change call, replicate 1	firefly reporter light, replicate 1	firefly reporter light, replicate 2	Renilla control light, replicate 1	Renilla control light, replicate 2	outcome
1	pea (GeneID 36561)	DRSC07120		11987		1964		inactive
2	CG9003 (GeneID 36244)	DRSC07317		8226		2808		inactive
3	CG4286 (GeneID 37416)	DRSC04459		2482	8503	512	2448	inactive
4	CG12898 (GeneID 36096)	DRSC06213		3712	5840	656	3508	inactive
5	tutl (GeneID 46015)	DRSC00441		3621	7697	1031	1847	inactive
6	tutl (GeneID 46015)	DRSC00442		4458	8103	1002	1505	inactive
7	tutl (GeneID 46015)	DRSC00443		2294	4259	720	1389	inactive
8	CG10591 (GeneID 38634)	DRSC09748		7705		2001		inactive
9	Snrk (GeneID 36579)	DRSC07192		13704		1968		inactive
10	GAPcenA (GeneID 38945)	DRSC10771		1783	5083	1072	2421	inactive
11	Mis12 (GeneID 38762)	DRSC10299		1652	4493	1607	2561	inactive
12	CG32413 (GeneID 318018)	DRSC21591		4.90e5	4.76e5	2.51e5	1.93e5	inactive
13	Pdp1 (GeneID 45588)	DRSC08896		1640		340		inactive
14	Pdp1 (GeneID 45588)	DRSC08897		2909		379		inactive
15	Pdp1 (GeneID 45588)	DRSC11251		2628	11474	1616	3062	inactive
16	Met (GeneID 32114)	DRSC20284		15254		8003		inactive
17	Vha16-2 (GeneID 39282)	DRSC10873		6746		3859		inactive
18	Zip48C (GeneID 36273)	DRSC06314		8427		2384		inactive
19	CG5611 (GeneID 43318)	DRSC15843		5685		2960		inactive
20	CG13177 (GeneID 5740215)	DRSC06303		10619		2612		inactive
21	Lasp (GeneID 39864)	DRSC10379		3984		1504		inactive
22	Orp8 (GeneID 42412)	DRSC15110		35952		6137		inactive
23	Orp8 (GeneID 42412)	DRSC15712		2506	4112	948	1400	inactive
24	Meics (GeneID 39539)	DRSC11413	Wg reporter activity lowered	2172		1837		active
25	CG3520 (GeneID 37708)	DRSC04383		3382	6960	737	3060	inactive
26	CG8841 (GeneID 36336)	DRSC07286		7578		2231		inactive
27	Roe1 (GeneID 36508)	DRSC07534		12080		3149		inactive
28	CG18249 (GeneID 40964)	DRSC15318		4865		2128		inactive
29	CG4069 (GeneID 39437)	DRSC10396		4901		1672		inactive
30	CG6656 (GeneID 42576)	DRSC16085		2866	9826	1056	3011	inactive
31	aqz + CG9837	DRSC12709		6464		2061		inactive
32	Cyp6t2Psi (GeneID 3772355)	DRSC01840		15963		12832		inactive
33	CG11550 (GeneID 43731)	DRSC14326		13776		12007		inactive
34	brun (GeneID 35325)	DRSC02706		8282		3872		inactive
35	CG14182 (GeneID 40181)	DRSC10181		14481		4293		inactive
36	CG43088 (GeneID 12797977)	DRSC19055		6599		1776		inactive
37	CG43088 (GeneID 12797977)	DRSC21407		7.32e5	7.00e5	3.35e5	3.06e5	inactive
38	CG3618 (GeneID 40303)	DRSC11746		3357		1488		inactive
39	CG7551 (GeneID 39280)	DRSC10876		7029		3650		inactive
40	nol (GeneID 64867)	DRSC21425		4.39e5	4.52e5	1.75e5	1.47e5	inactive
41	CG9550 (GeneID 33913)	DRSC03262		2550	8338	1207	1200	inactive
42	CG11951 (GeneID 43463)	DRSC14442		7287		2676		inactive
43	EMC6 (GeneID 42992)	DRSC14386		19031		17824		inactive
44	CG34323 (GeneID 5740207)	DRSC18916		5200		1928		inactive
45	Nrx-IV (GeneID 39387)	DRSC11238		6184		2739		inactive
46	Ctl1 (GeneID 38523)	DRSC08303		4873		2195		inactive
47	NAT1 (GeneID 46020)	DRSC06854	Wg reporter activity raised	71467		1894		active
48	CG5674 (GeneID 35072)	DRSC02874	Wg reporter activity raised	2620	6133	483	1237	active
49	CG15071 (GeneID 37153)	DRSC06504		5140		2010		inactive
50	CG7264 (GeneID 39339)	DRSC10793		6134		2129		inactive
51	CG3281 (GeneID 41445)	DRSC15470		10596		5026		inactive
52	Hmx (GeneID 42110)	DRSC15307		12696		4848		inactive
53	Hmx (GeneID 42110)	DRSC15884		25563		8032		inactive
54	Hmx (GeneID 42110)	DRSC16706		20848		4153		inactive
55	Hmx (GeneID 42110)	DRSC22799		9.94e5	1.02e6	1.73e5	2.95e5	inactive
56	Msp300 (GeneID 3771968)	DRSC00854		23180		10560		inactive
57	Msp300 (GeneID 3771968)	DRSC00856		25046		10947		inactive
58	Msp300 (GeneID 3771968)	DRSC00857		18473		12432		inactive
59	Msp300 (GeneID 3771968)	DRSC00858		20500		9458		inactive
60	Msp300 (GeneID 3771968)	DRSC02360		2052	4650	964	1816	inactive
61	Msp300 (GeneID 3771968)	DRSC03369		7226		3322		inactive
62	Msp300 (GeneID 3771968)	DRSC03370		2551	6060	1063	2924	inactive
63	CG43428 (GeneID 12798467)	DRSC06205		4837		2471		inactive
64	CG15042 (GeneID 32844)	DRSC19618		24980		9962		inactive
65	Ip6k (GeneID 37465)	DRSC04054		8204		1964		inactive
66	CG7606 (GeneID 8673956)	DRSC13246		4833		1765		inactive
67	CG7606 (GeneID 8673956)	DRSC16268		15364		4460		inactive
68	RpS20 (GeneID 42464)	DRSC16836		11680		3590		inactive
69	CG13086 (GeneID 35208)	DRSC02190		4939	7641	1380	2588	inactive
70	kis (GeneID 33185)	DRSC00521		3479	12795	1688	3991	inactive
71	kis (GeneID 33185)	DRSC00625		1458	8464	704	3288	inactive
72	kis (GeneID 33185)	DRSC00823		7962		4679		inactive
73	kst (GeneID 38418)	DRSC08719		5869		2345		inactive

Copied from the list:
RpS20 (GeneID 42464) [DRSC16836], firefly reporter light, replicate 1: 11680
Under “Renilla control light, replicate 1”, Ctl1 (GeneID 38523) [DRSC08303] has 2195
Hmx (GeneID 42110) [DRSC16706], Renilla control light, replicate 1 = 4153
Under “firefly reporter light, replicate 1”, CG15042 (GeneID 32844) [DRSC19618] has 24980
For “outcome”, Pdp1 (GeneID 45588) [DRSC11251] reads inactive
Result of CG3281 (GeneID 41445) [DRSC15470] in “outcome”: inactive
